Experimental findings from patent US20160367685A1 (PURDUE RESEARCH FOUNDATION, priority 2013, published 2016) are described below.

Data set [1] is described as follows: general procedure: Fmoc solid-phase peptide synthesis; H-Cys(Trt)-(2-ClTrt) resin. Conditions: conjugation step.
A short description of data set [2]: general procedure: Fmoc solid-phase peptide synthesis; H-L-Cys(Trt)-(2-ClTrt) resin. As to conditions: whole synthesis, scale 0.14 mmol.

With “(12R,15S,18S,22S,25S,39S,43S)-18-Amino-22,25-dibenzyl-15-(carboxymethyl)-1-(9-methoxy-3-nitro-5,11-dioxo-5,11-dihydro-6H-indeno[1,2-c]isoquinolin-6-yl)-5,14,17,21,24,27,36,41-octaoxo-6-oxa-9,10-dithia-4,13,16,20,23,26,35,40,42-nonaaza”, in data set [1], the conjugation yield stood at 29.8%. DUPA-Aoc-Phe-Phe-Dap-Asp-Cys gave an isolated yield in data set [2] (overall) of 58% overall yield. Besides, in data set [2], the isolated mass is reported as 172 mg.
